This passage reports binding results from article doi:10.1101/350256.

The experiment has as its target T1, TAP-tagged MERS1 NUDIX hydrolase (Trypanosoma brucei) (UniProt B6SBM0).
T1 sequence: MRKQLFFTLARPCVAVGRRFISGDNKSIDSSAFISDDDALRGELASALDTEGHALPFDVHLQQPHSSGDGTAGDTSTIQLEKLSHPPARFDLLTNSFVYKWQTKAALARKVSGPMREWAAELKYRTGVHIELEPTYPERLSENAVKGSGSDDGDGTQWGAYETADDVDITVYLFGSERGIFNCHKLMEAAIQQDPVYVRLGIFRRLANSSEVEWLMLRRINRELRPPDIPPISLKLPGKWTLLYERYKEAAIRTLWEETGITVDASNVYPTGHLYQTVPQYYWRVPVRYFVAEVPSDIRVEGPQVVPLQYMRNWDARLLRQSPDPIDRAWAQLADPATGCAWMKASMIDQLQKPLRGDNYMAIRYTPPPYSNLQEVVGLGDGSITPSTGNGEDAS
In words: affinity purification with mass spectrometry.

These are yes or no findings as the source states them, for the method shown. Binding seen in cells or lysates may run through a third protein. Here binding means that the protein was enriched with, or labelled near, the bait; the list need not be complete. Tags and fused reporters may be left off the sequences shown.

On to “MERS2 pentatricopeptide repeat-containing (PPR) protein, endogenous”, for which the binding result is “binds”.
